The values that follow come from patent US20220112291A1.

Numbering of substitutions follows the chain as printed. Results are given in words; binding and its absence hold for the method and conditions named. Some results given as binding are weak or reduced against the parent protein; the word gives no strength.

In assay [1] the target is human single-chain CD1a-β2M recombinant protein (Human B2M-CD1a ECD-Avi-His6) (human). The assay can be described thus: Octet (BLI), 2nd antibody at 100 nM on CD1a captured by OKT6.
Assay [2] has the same target. The assay can be described thus: Octet BLI sandwich: OKT6 coupled to the tip, human CD1a (200 nM) held by it, then Ab673 as second antibody at 100 nM. In general terms: BLI is a label-free optical method that tracks binding on a fibre tip over time.
Assay [3] shares this target. The assay can be described thus: competition ELISA on coated CD1a against biotinylated Ab40. On the technique in general: In an ELISA, binding on a coated surface is turned into a signal by an enzyme label.

B1: Ab673 (antibody, human IgG1, kappa, V domains shown)
VH: EVQLVESGGGLVQPGGSLRLSCAASGFTFTDHYMHWVRQAPGKGLEWVAHTRDKAGGYTTESNPAVKGRFTISRDNAKNSLYLQMNSLRAEDTAVYYCARETTRIPTGWFAYWGQGTLVTVSS
VL: DIQMTQSPSSLSASVGDRVTITCLASEDIYFDLAWYQQKPGKAPKLLIYGGDRLKEGVPSRFSGSGSGTDYTLTISSLQPEDFATYYCQQSYSYPYTFGQGTKLEIKR
B1: the binding entry in assay [1] and in assay [2] was “binds” each time.

B2: Ab138 (antibody, human IgG1, kappa, V domains shown)
VH: B1 VH with H32F, H35N, H50F, T51I, D53N, G56N, A65S, R104G
VL: B1 VL with Y30S, F31N, G51A, D52N, E56D, S93K
In the case of B2, the binding entry in assay [3] is “binds”.
